Measurements reported in PubChem BioAssay AID686938 (Drosophila RNAi Screening Center, 2013).
The deposit covers about 23,000 reagents; shown is a random part of those that have a named target and a result. Of all reagents, 75 (0.33%) are marked active. 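Raw plate signals without normalisation; calls rest on plate z-scores that were not deposited; ratio present for only 364 wells.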 A number with no mark means an inactive call. A plus sign joins genes that one reagent is predicted to hit. Not given: the dose of the treatment.

- Aim: 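Knock-downs reducing store-operated calcium influx in Drosophila cells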 (primary screen)
- System: Drosophila S2R+ cells
- Reagent: long dsRNA against Drosophila genes, about 0.25 µg dsRNA per well, roughly 10,000 cells
- Time to read-out: 5 days of knock-down before the calcium assay
- Treatment: thapsigargin (SERCA pump blocker) to empty calcium stores; entry signal taken 4 min after adding it
- Measurement: 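Per-well fluo-4 fluorescence in two replicates, unnormalised, measured in resting cells and 4 min after store depletion by the SERCA blocker thapsigargin; ratio of the two present in few wells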
- Direction: calcium entry signal: higher = stronger calcium signal after store depletion; resting calcium signal: higher = higher resting calcium signal
- Call rule: 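Called when the plate z-score of the entry-to-rest ratio, mean of duplicates, falls below −3; wells with low overall dye signal (Fmax z below −2) or more than five off-targets excluded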
- Meaning of the calls: active = strongly reduced calcium entry; inactive = no strong reduction

Target gene	PubChem SID	calcium entry signal, replicate 1 (fluorescence units)	calcium entry signal, replicate 2 (fluorescence units)	resting calcium signal, replicate 1 (fluorescence units)	resting calcium signal, replicate 2 (fluorescence units)
da	SID104183309	5.45e7	6.03e7	2.22e7	2.56e7
CG42703	SID104183765	3.76e7	4.09e7	1.58e7	4.13e7
Jon99Ciii	SID104196651	1.84e7	3.28e7	1.27e7	1.86e7
tun	SID104185384	4.67e7	5.09e7	4.30e7	2.19e7
tun	SID104186919	3.22e7	2.96e7	1.58e7	1.56e7
Ltn1	SID104190848	2.60e7	3.44e7	1.22e7	2.35e7
Ltn1	SID104190850	3.21e7	5.55e7	1.56e7	2.30e7
dare	SID104187394	2.56e7	2.55e7	1.09e7	1.20e7
ocn	SID104196812	4.29e7	5.05e7	2.07e7	2.29e7
Gr98d	SID104194363	1.91e7	3.23e7	1.14e7	1.46e7
CG42710	SID104180826	3.34e7	5.41e7	1.82e7	2.34e7
Cap-H2	SID104194700	5.13e7	5.34e7	2.19e7	2.33e7
CG2059	SID104197995	3.01e7	4.17e7	1.52e7	1.95e7
inaF-B + inaF-D + inaF-C + 1 more	SID104200134	3.80e7	3.79e7	1.79e7	1.82e7
fiz	SID104199980	3.31e7	4.21e7	1.57e7	1.83e7
CG31910 + snoRNA:Me28S-G2743 (retired record)	SID104180738	3.85e7	4.38e7	2.08e7	1.96e7
lgs	SID104196944	2.84e7	4.13e7	1.42e7	1.93e7
CG3407	SID104180395	4.50e7		2.40e7	
lap	SID104192420	4.51e7	4.56e7	1.81e7	1.97e7
CG9304	SID104184330	4.86e7	4.86e7	2.45e7	2.30e7
Ttd14	SID104186424	3.71e7	4.07e7	1.86e7	2.19e7
Ttd14	SID104186734	5.88e7	3.88e7	2.41e7	2.05e7
CG15530	SID104194859	2.49e7	3.14e7	1.36e7	1.43e7
CG44325	SID104197831	2.98e7	3.25e7	1.34e7	1.42e7
CG44325	SID104198215	3.23e7	2.92e7	1.40e7	1.41e7
Elp3	SID104180240	2.62e7	2.20e7	1.33e7	1.12e7
Rpe	SID104186199	2.47e7	2.02e7	1.04e7	1.05e7
crok	SID104182385	3.68e7	2.46e7	1.58e7	1.20e7
crok	SID104201125	3.73e7	3.14e7	1.99e7	1.50e7
CG1529	SID104200307	4.15e7	4.30e7	2.08e7	2.21e7
COX7C	SID104186623	4.71e7	3.67e7	2.08e7	1.76e7
EAChm	SID104189802	3.38e7	5.24e7	1.71e7	2.01e7
RPA2	SID104182976	2.48e7		1.56e7	
Taf1	SID104192399	2.85e7	1.93e7	1.59e7	1.11e7
unc-13	SID104196984	4.52e7	3.91e7	2.30e7	1.89e7
unc-13	SID104196985	4.46e7	3.30e7	2.36e7	1.58e7
unc-13	SID104197015	5.26e7	5.21e7	2.26e7	2.31e7
Golgin104	SID104190251	4.44e7	5.62e7	2.10e7	3.91e7
rl	SID104187625	2.96e7	4.37e7	1.54e7	2.07e7
rl	SID104200534	3.47e7	3.68e7	2.18e7	1.82e7
rl	SID104201468	3.67e7	3.31e7	2.00e7	1.66e7
Ca-alpha1T	SID104197634	3.39e7	3.96e7	1.59e7	1.72e7
Ca-alpha1T	SID104197895	3.00e7	4.47e7	1.48e7	2.37e7
Ca-alpha1T	SID104198148	3.30e7	4.04e7	1.66e7	1.93e7
Ca-alpha1T	SID104198149	3.66e7	4.14e7	1.86e7	1.85e7
Ca-alpha1T	SID104201177	4.02e7	3.09e7	2.17e7	1.53e7
CG5348	SID104186725	3.96e7	5.01e7	1.78e7	2.42e7
Ir94e	SID104195021	4.17e7	5.45e7	2.03e7	2.50e7
ND-MWFE	SID104186156	3.03e7	1.97e7	1.59e7	9.66e6
CG17359	SID104190057	4.56e7	4.17e7	1.93e7	1.91e7
Sirt6	SID104195802	2.95e7	2.83e7	1.38e7	1.45e7
mRpL32	SID104194271	3.45e7	6.45e7	1.67e7	2.33e7
CG15253	SID104181663	5.22e7	3.59e7	2.09e7	1.55e7
CG4891	SID104181728	4.38e7		2.07e7	
CG2901	SID104198031	1.73e7	1.85e7	8.40e6	9.35e6
SCCRO	SID104190636	3.07e7	2.82e7	1.42e7	1.28e7
CG3640	SID104184191	4.59e7	4.27e7	2.22e7	2.06e7
Rpt4	SID104198505	1.29e7 (active)	1.56e7	9.98e6	1.08e7

9 of these entries in another layout.
Target gene | PubChem SID | calcium entry signal, replicate 1 (fluorescence units) | calcium entry signal, replicate 2 (fluorescence units) | resting calcium signal, replicate 1 (fluorescence units) | resting calcium signal, replicate 2 (fluorescence units)
rl | SID104200534 | 3.47e7 | 3.68e7 | 2.18e7 | 1.82e7
rl | SID104201468 | 3.67e7 | 3.31e7 | 2.00e7 | 1.66e7
Ca-alpha1T | SID104197634 | 3.39e7 | 3.96e7 | 1.59e7 | 1.72e7
Ca-alpha1T | SID104197895 | 3.00e7 | 4.47e7 | 1.48e7 | 2.37e7
Ca-alpha1T | SID104198148 | 3.30e7 | 4.04e7 | 1.66e7 | 1.93e7
Ca-alpha1T | SID104198149 | 3.66e7 | 4.14e7 | 1.86e7 | 1.85e7
Ca-alpha1T | SID104201177 | 4.02e7 | 3.09e7 | 2.17e7 | 1.53e7
CG5348 | SID104186725 | 3.96e7 | 5.01e7 | 1.78e7 | 2.42e7
Ir94e | SID104195021 | 4.17e7 | 5.45e7 | 2.03e7 | 2.50e7
